According to publication PMC10058905, “Bioassay-Guided Alkaloids Isolation from Camellia sinensis and Colchicum luteum: In Silico and In Vitro Evaluations for Protease Inhibition” (Molecules, 2023):

Molecular target: T1, Trypsin from bovine pancreas (Bos taurus, UniProt P00760)
T1 construct: gene PRSS1
T1 sequence (P00760 24-246): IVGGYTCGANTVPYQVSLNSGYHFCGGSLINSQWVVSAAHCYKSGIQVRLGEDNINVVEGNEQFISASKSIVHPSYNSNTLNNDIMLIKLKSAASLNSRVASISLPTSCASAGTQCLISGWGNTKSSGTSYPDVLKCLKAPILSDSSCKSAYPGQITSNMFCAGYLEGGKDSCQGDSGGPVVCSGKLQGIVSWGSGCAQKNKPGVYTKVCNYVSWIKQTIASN
Assay: biochemical

COc1cc2c(c(OC)c1OC)-c1ccc(OC)c(=O)cc1[C@@H](NC(C)=O)CC2 [compound 1, colchicine]
Ki: 690 ± 90 µM
